Results from article PMC4458842.
No constants are given. Whether binding was seen depends on the method and setting. For some assays here: In cells and extracts the contact can be indirect. Some binding calls cover weakened binding; strength is not graded here. Where a sequence is shown, tags or fusion partners need not be part of it. Blank lines part the entries; values can stand above or below the binder they belong to.

Protein sequences, listed by entry. Tags and fused reporters are not part of them.
UniProt Q38919: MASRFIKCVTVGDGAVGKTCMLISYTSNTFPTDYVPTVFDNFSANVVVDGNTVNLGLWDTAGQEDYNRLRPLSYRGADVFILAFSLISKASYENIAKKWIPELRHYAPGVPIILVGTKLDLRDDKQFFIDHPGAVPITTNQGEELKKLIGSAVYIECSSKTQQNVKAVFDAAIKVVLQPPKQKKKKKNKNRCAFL

Experiments:
MBP-ROP2 (Arabidopsis) = MBP-ROP2 (Arabidopsis) (UniProt Q38919); assay: pull-down; MBP-ROP2 bait on resin; extracts of protoplasts expressing HA-LLG1 or HA-LRE; with guanine nucleotide (GDP or GTP); procedure of Duan et al., 2010; only the target purified
MBP-exJM (Arabidopsis) = molecular target: T1, MBP-exJM (Arabidopsis) (UniProt Q9SCZ4); assay: pull-down; MBP-exJM bait on resin; E. coli-produced His6-LLG1 applied; 4°C, 2 hr
T1 sequence: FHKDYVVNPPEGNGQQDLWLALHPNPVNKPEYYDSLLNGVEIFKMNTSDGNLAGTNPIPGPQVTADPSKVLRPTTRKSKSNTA

[1] = molecular target: T2, LRE (amino acids 21–138) (yeast two-hybrid fusion) (Arabidopsis) (UniProt B3GS44); assay: two-hybrid; yeast two-hybrid, Stratagene vectors; 3AT selection and β-galactosidase assays
T2 sequence: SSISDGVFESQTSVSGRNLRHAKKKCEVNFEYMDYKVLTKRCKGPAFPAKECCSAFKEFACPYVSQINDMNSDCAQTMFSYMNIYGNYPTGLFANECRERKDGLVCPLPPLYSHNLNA

[2] = molecular target: T3, LLG1 (amino acids 24–149) (yeast two-hybrid fusion) (Arabidopsis) (UniProt Q9FKT1); assay: as above
T3 sequence: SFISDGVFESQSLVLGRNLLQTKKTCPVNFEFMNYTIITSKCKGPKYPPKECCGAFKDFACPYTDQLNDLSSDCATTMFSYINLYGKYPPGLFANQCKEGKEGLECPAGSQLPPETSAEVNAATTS

B1: HA-LRE (protein, UniProt B3GS44 21-139)
chain: SSISDGVFESQTSVSGRNLRHAKKKCEVNFEYMDYKVLTKRCKGPAFPAKECCSAFKEFACPYVSQINDMNSDCAQTMFSYMNIYGNYPTGLFANECRERKDGLVCPLPPLYSHNLNAS
- binding (MBP-ROP2 (Arabidopsis)): binds

B3: His6-LLG1 (protein, UniProt Q9FKT1 24-144)
chain: SFISDGVFESQSLVLGRNLLQTKKTCPVNFEFMNYTIITSKCKGPKYPPKECCGAFKDFACPYTDQLNDLSSDCATTMFSYINLYGKYPPGLFANQCKEGKEGLECPAGSQLPPETSAEVN
- binding (MBP-exJM (Arabidopsis)): binds

Continued, values first:

- binding (MBP-ROP2 (Arabidopsis)): binds
B2: HA-LLG1 (protein, UniProt Q9FKT1 24-144)
chain: SFISDGVFESQSLVLGRNLLQTKKTCPVNFEFMNYTIITSKCKGPKYPPKECCGAFKDFACPYTDQLNDLSSDCATTMFSYINLYGKYPPGLFANQCKEGKEGLECPAGSQLPPETSAEVN

- binding [1]: binds
- binding [2]: binds
B4: exJM (yeast two-hybrid fusion) (domain or fragment, UniProt Q9SCZ4 365-447)
chain: FHKDYVVNPPEGNGQQDLWLALHPNPVNKPEYYDSLLNGVEIFKMNTSDGNLAGTNPIPGPQVTADPSKVLRPTTRKSKSNTA
